PubChem BioAssay AID686943 – Drosophila RNAi Screening Center | 2013
Aim: 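Search across the genome for regulators of signalling from receptor tyrosine kinase to ERK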 (primary screen). System: Drosophila S2R+ haemocyte-like cells expressing YFP-tagged ERK (Rolled). Reagents: long dsRNA against Drosophila genes. Conditions: insulin stimulation versus unstimulated cells; dose and duration not given. Measured: 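Per-plate z-scores of phospho-ERK immunostaining normalised to YFP-tagged ERK, measured with and without insulin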. Direction: replicate 1, z-score of dpERK with insulin and replicate 2, z-score of dpERK with insulin: higher = more active ERK per ERK-YFP after insulin; replicate 1, z-score of dpERK under basal conditions: higher = more basal active ERK per ERK-YFP; replicate 1, z-score of ERK-YFP with insulin: higher = more YFP-tagged ERK signal.
In all, the deposit lists about 23,000 reagents; this is an unselected part of those with a known target gene and a result. 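Extra replicates exist only for a retested subset of genes; insulin dose and duration not given; both raised and lowered dpERK matter.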 Names joined by + are all predicted targets of the reagent. The record does not give: the amount of reagent, the time to read-out.

The first 3 entries, ahead of the listing:
| gene | PubChem SID | replicate 1, z-score of dpERK with insulin | replicate 2, z-score of dpERK with insulin | replicate 1, z-score of dpERK under basal conditions | replicate 1, z-score of ERK-YFP with insulin |
| --- | --- | --- | --- | --- | --- |
| Cpr64Aa | SID104188252 | -0.37 | -0.48 | -1.31 | 0.21 |
| nAChRalpha5 | SID104181152 | 1.71 | 0.89 | -0.19 | -0.85 |
| nAChRalpha5 | SID104181738 | 0.95 | 0.19 | 0.48 | 0.48 |

Results, from the start:
| gene | PubChem SID | replicate 1, z-score of dpERK with insulin | replicate 2, z-score of dpERK with insulin | replicate 1, z-score of dpERK under basal conditions | replicate 1, z-score of ERK-YFP with insulin |
| --- | --- | --- | --- | --- | --- |
| Cpr64Aa | SID104188252 | -0.37 | -0.48 | -1.31 | 0.21 |
| nAChRalpha5 | SID104181152 | 1.71 | 0.89 | -0.19 | -0.85 |
| nAChRalpha5 | SID104181738 | 0.95 | 0.19 | 0.48 | 0.48 |
| nAChRalpha5 | SID104181739 | 1.12 | 0.75 | -0.34 | -0.2 |
| nAChRalpha5 | SID104202144 | 0.47 | 1.05 | 0.64 | 1.39 |
| CG34169 | SID104181371 | -1.04 | -1.18 | -0.88 | 0.65 |
| CG5107 | SID104195508 | 0.43 | 0.88 | -0.64 | 0.36 |
| CG6441 | SID104182749 | -0.35 | 0.07 | -1.3 | 0.36 |
| RhoGAP15B | SID104199716 | -0.28 | -0.09 | -0.04 | -0.14 |
| RhoGAP15B | SID104199717 | 0.23 | -0.09 | -1.06 | -1.01 |
| CG31952 | SID104180220 | -0.4 | 0.06 | -0.11 | 0.87 |
| CG31952 | SID104201593 | -0.32 | 0.43 | -1.68 | 1.82 |
| CG5906 | SID104190349 | 1.48 | 0.59 | -0.14 | 0.32 |
| Sgsh | SID104194563 | 0.02 | 0.85 | 2.09 | -0.3 |
| CG6040 | SID104195746 | 0.24 | -0.81 | -0.24 | -0.18 |
| rut | SID104200159 | -4.42 | -2.03 | -2.66 | -2.66 |
| CG17826 | SID104190081 | 0.85 | 0 | 0.14 | 0.21 |
| Upf3 | SID104183884 | -1.24 | -0.82 | 1.37 | 1.07 |
| CG6294 + CG6299 + CG15642 | SID104199773 | 0.64 | 1.11 | 0.87 | 0.12 |
| CG4360 | SID104195358 | 0.24 | 0 | -0.11 | 0.34 |
| dsx | SID104192441 | -0.5 | -0.37 | -0.58 | 0.2 |
| dsx | SID104196726 | 0.5 | -0.2 | 2.1 | -0.06 |
| dsx | SID104201224 | 0.32 | 0.74 | 0.75 | 1.16 |
| CG12498 | SID104198427 | 0.26 | -0.05 | -0.13 | -0.09 |
| CG32267 | SID104201274 | 0.42 | 0.57 | 0.15 | 0.89 |
| Cbp53E | SID104187148 | 0.41 | -0.03 | 1.01 | 0.36 |
| lncRNA:CR40053 | SID104200625 | -1.17 | 0.32 | 0.15 | 0.23 |
| Dop2R | SID104200475 | 0.53 | -0.01 | 0.32 | -0.18 |
| Dop2R | SID104200478 | 0.26 | 0.15 | -0.3 | -0.05 |
| CG8858 | SID104187082 | 0.81 | 0.01 | 1.66 | -0.1 |
| Sox21a | SID104190611 | -0.69 | 0.12 | -0.09 | 0.4 |
| CG13627 | SID104194421 | -0.33 | -0.17 | -0.36 | 0.46 |
| CG3061 | SID104195252 | -0.05 | -0.32 | -0.55 | -0.28 |
| sqd | SID104194952 | -0.23 | 0.19 | -1.91 | 0.74 |
| sqd | SID104196858 | -0.32 | -0.46 | -0.95 | 1.12 |
| sqd | SID104202311 | -1.63 | 0.7 | 0.53 | -1.54 |
| vg | SID104187507 | 1.48 | 0.07 | -0.7 | -0.35 |
| vg | SID104202065 | 0.26 | 0.24 | -0.95 | -0.2 |
| Agps | SID104185776 | -0.59 | 0.3 | 0.43 | -0.02 |
